Assay results published in PMC7375823.
No constants are given. Whether binding was seen depends on the method and setting. In cells and extracts the contact can be indirect. Some binding calls cover weakened binding; strength is not graded here.

Target: T1, IRF3 (human (endogenous in 293T)) (UniProt Q14653)
T1 sequence: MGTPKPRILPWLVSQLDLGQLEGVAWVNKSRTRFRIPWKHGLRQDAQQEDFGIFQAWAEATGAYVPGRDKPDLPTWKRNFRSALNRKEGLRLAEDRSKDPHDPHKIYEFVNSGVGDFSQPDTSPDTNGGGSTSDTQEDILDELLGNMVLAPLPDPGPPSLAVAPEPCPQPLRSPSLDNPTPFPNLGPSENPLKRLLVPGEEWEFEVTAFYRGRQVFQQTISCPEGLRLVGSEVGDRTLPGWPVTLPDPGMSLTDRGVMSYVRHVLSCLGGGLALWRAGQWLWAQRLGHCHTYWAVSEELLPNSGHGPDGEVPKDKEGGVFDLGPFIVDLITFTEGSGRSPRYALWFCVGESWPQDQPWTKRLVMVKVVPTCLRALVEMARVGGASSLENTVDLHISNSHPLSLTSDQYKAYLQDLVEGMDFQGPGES
Assay: co-IP; endogenous co-immunoprecipitation in 293T cells, without and following SeV infection

- binding: binds
B1: DDX56 (protein, UniProt Q9NY93 1-547)
chain: MEDSEALGFEHMGLDPRLLQAVTDLGWSRPTLIQEKAIPLALEGKDLLARARTGSGKTAAYAIPMLQLLLHRKATGPVVEQAVRGLVLVPTKELARQAQSMIQQLATYCARDVRVANVSAAEDSVSQRAVLMEKPDVVVGTPSRILSHLQQDSLKLRDSLELLVVDEADLLFSFGFEEELKSLLCHLPRIYQAFLMSATFNEDVQALKELILHNPVTLKLQESQLPGPDQLQQFQVVCETEEDKFLLLYALLKLSLIRGKSLLFVNTLERSYRLRLFLEQFSIPTCVLNGELPLRSRCHIISQFNQGFYDCVIATDAEVLGAPVKGKRRGRGPKGDKASDPEAGVARGIDFHHVSAVLNFDLPPTPEAYIHRAGRTARANNPGIVLTFVLPTEQFHLGKIEELLSGENRGPILLPYQFRMEEIEGFRYRCRDAMRSVTKQAIREARLKEIKEELLHSEKLKTYFEDNPRDLQLLRHDLPLHPAVVKPHLGHVPDYLVPPALRGLVRPHKKRKKLSSSCRKAKRAKSQNPLRSFKHKGKKFRPTAKPS
